The list shows a part of the results.

Chains of the proteins cited; added tags and fusions are not shown.
UniProt Q0JBA9, entry or part of it: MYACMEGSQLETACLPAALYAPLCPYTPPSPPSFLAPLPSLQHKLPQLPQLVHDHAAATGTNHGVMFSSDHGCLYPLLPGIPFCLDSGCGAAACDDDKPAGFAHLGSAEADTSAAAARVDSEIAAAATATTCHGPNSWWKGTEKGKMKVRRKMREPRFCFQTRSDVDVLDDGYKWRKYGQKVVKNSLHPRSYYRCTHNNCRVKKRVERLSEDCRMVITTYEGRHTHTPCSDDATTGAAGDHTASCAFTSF

The target in this assay is OsWRKY34 (Oryza sativa, UniProt Q0JBA9 1-250). Nature of the assay: protein-binding microarray (RPBM); PBS, 2% BSA, 51.3 ng/ul salmon testes DNA, 50 uM zinc acetate, 200 nM TF, 25 C, 1 h; high values mean tight binding. As to conditions: protein: recombinant; tags: N-terminal polyhistidine and DsRed monomer fusion (pET32a); label: CyDye5-dUTP incorporated in the synthesized complementary strand; 3' TTTTT single-stranded linker to array surface; dsDNA, one strand shown. The essentials: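 Binding signal is reported as fluorescence intensity per feature (arbitrary units) from an Axon 4000B scanner. Incubation used 200 nM of each Ni–NTA-purified, N-terminally polyhistidine- and DsRed-fused transcription factor from E. coli BL21-CodonPlus on a double-stranded custom Agilent array for 1 h at 25 °C, with 50 µM zinc acetate in the buffer, followed by washing.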
With “GTCCCACGCAACCAATCAACCAATTTCCCGCGCGCTGTCACGGAGTCACCTAGTGCAG”, the binding signal was 8280 fluorescence intensity (a.u.). Regarding “ACTGCGTGACAGCCACCGTTATTAGCACGTCAACGACTGACGGAGTCACCTAGTGCAG”, the binding signal was 8390 fluorescence intensity (a.u.). The result for “TGTGCCACGTTGGTCCCGTGCTAAACTTTTTTCCGTTTTGCGGAGTCACCTAGTGCAG” reads 8540 fluorescence intensity (a.u.).

On to “AACTTCTAACTTTTCCATTACATCGTTTCAATTTTAACCACGGAGTCACCTAGTGCAG”, for which the binding signal was 9420 fluorescence intensity (a.u.). Regarding “GAAAGGTAGTACACACGCACCCCGACCACTCCCACTATTTCGGAGTCACCTAGTGCAG”, the binding signal was 8020 fluorescence intensity (a.u.). The result for “GGTTGTTTTCTTCGCTCAATGTTCCCAACCTCTGCCTCTCCGGAGTCACCTAGTGCAG” reads 10000 fluorescence intensity (a.u.); that for “TATATATATATATATATATATATATATATATATATATATCCGGAGTCACCTAGTGCAG”, 8650 fluorescence intensity (a.u.). The result for “CCCCTGCTGCGTGCTGCCGGCCGCCGTAAAATACAGCACTCGGAGTCACCTAGTGCAG” reads 9220 fluorescence intensity (a.u.); that for “TGGATTAGCGCCCGTCGTCCCACTCCTTTTCCATCGCGCTCGGAGTCACCTAGTGCAG”, 11300 fluorescence intensity (a.u.); that for “TCCTCTTGCAATCATTCACTCTCCTTGCTCGATTCTATAACGGAGTCACCTAGTGCAG”, 11300 fluorescence intensity (a.u.).

For the sequence “CTCTCTCTCCCGTTGGCGGCTTGCGCGCGCGCTTCCAGCCCGGAGTCACCTAGTGCAG”, the binding signal is 10100 fluorescence intensity (a.u.). On to “GTATATCACCACTCACCTACACATCTTGGTCATACACTTCCGGAGTCACCTAGTGCAG”, for which the binding signal was 13400 fluorescence intensity (a.u.).

For “CATGCTATAGATTAGGGCCTCGTTTAGTTCCCAATTTTTTCGGAGTCACCTAGTGCAG”, the binding signal was 8660 fluorescence intensity (a.u.). In the case of “AACTTTTTTACTGTCAACTTTACCTGATATATATATTACTCGGAGTCACCTAGTGCAG”, the binding signal is 8260 fluorescence intensity (a.u.). Take “TGCTGTGTATTGATGTATGGTCCTATGTTAGGTTAATTTACGGAGTCACCTAGTGCAG”: the binding signal is 9570 fluorescence intensity (a.u.). Under “ATTCCCAATCTTCTCAATCACCTCTCTCTCTCTCAAAAACCGGAGTCACCTAGTGCAG” stands 8810 fluorescence intensity (a.u.); under “GCCGCCGCCTTGCTCAGTTGCTCGTCGTCCTCCGCCGCCGCGGAGTCACCTAGTGCAG”, 9030 fluorescence intensity (a.u.). The result for “GGCATGGCTATATTTTCTTTCCAACTTTGCTCAATGTTTTCGGAGTCACCTAGTGCAG” reads 8570 fluorescence intensity (a.u.).

As for “CACCCAGTTCTTTTGTTCTTCCTATTCTGCATTTACTTTTCGGAGTCACCTAGTGCAG”, the binding signal is 13200 fluorescence intensity (a.u.).

For “GGGCCGTCCCGTCCTGTATCTTCCTTCATCTTCTTGCCATCGGAGTCACCTAGTGCAG”, the binding signal is 9630 fluorescence intensity (a.u.). The result for “ATTTCCGACCGGTCATATTCATTTGTCAACCTGATTGTACCGGAGTCACCTAGTGCAG” reads 11100 fluorescence intensity (a.u.); that for “AAGGGTGGGCGTGATGGAGTTTGGATGGGCCCTGCGACGGCGGAGTCACCTAGTGCAG”, 9160 fluorescence intensity (a.u.).

As for “TCGGTGTTTGGTTAGTTGAGCTGTTCTGGTCATTCTGGGCCGGAGTCACCTAGTGCAG”, the binding signal is 9520 fluorescence intensity (a.u.). The result for “CATGTTCTGTTTTGGCAATCCTTTTTTAGAGCGACTGGCGCGGAGTCACCTAGTGCAG” reads 8360 fluorescence intensity (a.u.). For “GCTCTGTGTGGTTGAGGTGATTGATTGATCTTTGGTTGGACGGAGTCACCTAGTGCAG”, the binding signal is 9360 fluorescence intensity (a.u.).

“TCACGGCCCCGCCGACCTCACGTCACCTTTTGTTGCGAGTCGGAGTCACCTAGTGCAG”: the binding signal is 8110 fluorescence intensity (a.u.). The result for “TCGCGCTGTCACCATCGTCGTCCCCGTTACCGAGCGCCGCCGGAGTCACCTAGTGCAG” reads 10200 fluorescence intensity (a.u.); that for “GGCGAGGCGTTTACAGGGTTGCTTCGGCTCGGGGTGGGTTCGGAGTCACCTAGTGCAG”, 11300 fluorescence intensity (a.u.); that for “ACTCTTACTTTATCAAATCCCATTATAACTATTTATCACTCGGAGTCACCTAGTGCAG”, 8870 fluorescence intensity (a.u.). The result for “TGTTTTCGACGTGGCTCAAAATCAATATCTGGGAGGGATTCGGAGTCACCTAGTGCAG” reads 8060 fluorescence intensity (a.u.); that for “TCCCTTGGCAGTATAGGTGGGTGGTTTTGCTTACGTGGCACGGAGTCACCTAGTGCAG”, 10600 fluorescence intensity (a.u.).

On to “GCTAGGTCTGGTCGCCCCGTGTGTGTATCCGTTGCCCCTGCGGAGTCACCTAGTGCAG”, for which the binding signal is 8540 fluorescence intensity (a.u.). The result for “CCTTGTACCTCTGTCCAGATTCATTGTACTAAGATATGTCCGGAGTCACCTAGTGCAG” reads 8540 fluorescence intensity (a.u.). The result for “GAGGAGGTCATTGACCCGTACTTAATTCTTCTTTTTTTTTCGGAGTCACCTAGTGCAG” reads 10900 fluorescence intensity (a.u.). “TATGTGTGTGTGGATGCGCGACAGGGGCGAAATATTAGGGCGGAGTCACCTAGTGCAG”: the binding signal is 8560 fluorescence intensity (a.u.). The result for “TCAGTGTCGGCCGCGATGTCTTTGCAGCTTTGCTGGTTTTCGGAGTCACCTAGTGCAG” reads 8090 fluorescence intensity (a.u.). For “ATGGTTTTGTTTCCTGTTTCAGTAGTCTTATAGCATGTTTCGGAGTCACCTAGTGCAG”, the binding signal is 8690 fluorescence intensity (a.u.). Under “TTCATCCGCTCTTTGTTTTTTTTGCGATTGTTTTTTTGGGCGGAGTCACCTAGTGCAG” stands 8320 fluorescence intensity (a.u.); under “TTAGTTTTCAGCTTTGGTGTTCAGTATATATACCCACCTGCGGAGTCACCTAGTGCAG”, 8140 fluorescence intensity (a.u.); under “CATGATGCCATCCTTTCTGCACCTGCCTTCACCGCCATTACGGAGTCACCTAGTGCAG”, 12500 fluorescence intensity (a.u.). Under “AAGGAAACCATCGACCGTTTGCCGCGCCCCGATTTGAACCCGGAGTCACCTAGTGCAG” stands 8430 fluorescence intensity (a.u.); under “CCGGGGAAGGCGTTGTTGGGTGGGAGCTTCTCCTGTCGGCCGGAGTCACCTAGTGCAG”, 12500 fluorescence intensity (a.u.).

Values taken from article PMC7819943, “Rice protein-binding microarrays: a tool to detect cis-acting elements near promoter regions in rice”.
